Assay: Protein electroelution from a polyacrylamide gel (GPR-800 system)
Conditions: 0.5% surfactant in Tris-glycine buffer; for presence of the protein in the collection reservoirs by MALDI-TOF mass spectrometry: after 15 min
Experimental: An embodiment of an anionic acid-labile surfactant (“AALS-6”) is used for protein electroelution from a polyacrylamide gel using Protea's GPR-800 system. A gel spot comprising the protein is placed in the gel loading reservoirs. A 0.5% anionic acid-labile surfactant is prepared by mixing the anionic acid-labile surfactant with Tris-glycine buffer. The mixture is placed in the gel loading reservoir to form a protein-surfactant complex (sample-surfactant complex). […] The mixture is used to transfer a protein from a coomassie stained gel into solution when voltage is applied to the sample. The movement of the protein-surfactant complex is tracked by the disappearance of the blue color of coomassie from the gel loading reservoirs and the emergence of the blue color of coomassie in the sample collection reservoirs. The movement of the protein-surfactant is complete after 15 min. The presence of the protein in the collection reservoirs is confirmed by MALDI-TOF mass spectrometry.
Similar experiments are performed with three (3) conventional anionic acid-labile surfactants. A 0.5% Proteamax, 0.5% Rapigest, and 0.5% PPS are prepared by mixing the surfactants with Tris-glycine buffer. […] No movement of the protein-coomassie complex is detectable for the 0.5% PPS surfactant.

Compound	presence of the protein in the collection reservoirs by MALDI-TOF mass spectrometry	time after which movement of the protein-surfactant complex is complete (voltage applied) [min]
CCCCCCOC(C)(COS(=O)(=O)[O-])OCCCCCC.[Na+] [AALS-6, sodium 2,2-bis(hexyloxy)propyl sulfate]	confirmed	15
CCCCCCCCCCC(OC(=O)NCCCS(=O)(=O)[O-])c1ccco1.[Na+] (stereo not shown) [Proteamax]	No protein is detected	
CCCCCCCCCCCC1(C)OCC(COCCCS(=O)(=O)[O-])O1.[Na+] (stereo not shown) [Rapigest]	No protein is detected	

Source: patent US8435756B2, “Anionic acid-labile surfactants and methods of use” (Protea Biosciences, Inc., priority 2008, dated 2013)
